Results deposited as PubChem BioAssay AID602196 (INSERM, 2012)
Test: 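Genes whose knock-down alters cisplatin killing of lung cancer cells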. Cells: human A549 lung cancer cells. Reagent: siRNA pair against human genes. Timing: 48 h transfection before cisplatin; time from cisplatin to read-out not stated. Challenge: cisplatin at a dose killing half of control-siRNA cells; exact dose and duration not given. Detection: 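Shift in cisplatin death relative to control siRNA, from -50 (all cells die) to +50 (no cells die); siRNAs harmful on their own scored 0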. Scale: two-siRNA summed score (-2 to +2): higher = both siRNAs protect from cisplatin killing; -2 means both sensitise; mean protection from cisplatin (shift in death): higher = protection from cisplatin killing. Active means: 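Each siRNA scores 0 if harmful alone by LDH or WST-1, otherwise +1 if it reduces and -1 if it increases cisplatin killing; a gene is active when both siRNAs agree (sum +2 or -2)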. Meaning of the calls: active = both siRNAs shift cisplatin killing the same way; inactive = no consistent shift, or siRNA harmful alone.
This is an unselected part of about 23,000 reagents tested. 455 of them (2%) were called active. 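Active includes both protection and sensitisation; some change values fall well beyond the stated -50 to +50 range.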 A number with no mark means an inactive call. Not all columns of the deposit are shown. The record does not give: the amount of reagent.

| gene | PubChem SID | two-siRNA summed score (-2 to +2) | mean protection from cisplatin (shift in death) (%) |
| --- | --- | --- | --- |
| CCDC88B (coiled-coil and HOOK domain protein 88B) | SID131518260 | 0 | 17.6 |
| CD19 (CD19 molecule) | SID131514688 | 0 | 8.1 |
| SYNJ2 (synaptojanin 2) | SID131504461 | 0 | -5.3 |
| RBM24 (RNA binding motif protein 24) | SID131520397 | 1 | 9.8 |
| GSTM1 (glutathione S-transferase mu 1) | SID131500796 | -1 | -15.9 |
| PTGES2-DT (PTGES2 divergent transcript) | SID131506925 | 0 | -0.8 |
| KRTAP5-11 (keratin associated protein 5-11) | SID131518294 | 0 | 17.9 |
| ZNF485 (zinc finger protein 485) | SID131508075 | 0 | 0.6 |
| RYR3 (ryanodine receptor 3) | SID131506711 | 0 | -1.1 |

Next part; the last 3 above are carried over.
| gene | PubChem SID | two-siRNA summed score (-2 to +2) | mean protection from cisplatin (shift in death) (%) |
| --- | --- | --- | --- |
| KRTAP5-11 (keratin associated protein 5-11) | SID131518294 | 0 | 17.9 |
| ZNF485 (zinc finger protein 485) | SID131508075 | 0 | 0.6 |
| RYR3 (ryanodine receptor 3) | SID131506711 | 0 | -1.1 |
| LOC401236 | SID131517111 | 0 | 12.4 |
| SIGLEC11 (sialic acid binding Ig like lectin 11) | SID131521188 | 1 | 12.5 |
| ZNF367 (zinc finger protein 367) | SID131518559 | 0 | 21.7 |
| RIOK3 (RIO kinase 3) | SID131519396 | 1 | 5.3 |
| STRN (striatin) | SID131505512 | 0 | -3 |
| NCR2 (natural cytotoxicity triggering receptor 2) | SID131508451 | 0 | 1.1 |
| FAF1 (Fas associated factor 1) | SID131502900 | 0 | -19.3 |
| DHX8 (DEAH-box helicase 8) | SID131515581 | 0 | 9.4 |
| LOC401703 (U2 small nuclear RNA auxiliary factor 1 like 4 pseudogene) | SID131508686 | 0 | 1.3 |
| TMED5 (transmembrane p24 trafficking protein 5) | SID131516252 | 0 | 10.5 |
| DDX19A (DEAD-box helicase 19A) | SID131508518 | 0 | 1.1 |
| TMEM140 (transmembrane protein 140) | SID131503687 | 0 | -8.4 |
| LOC391295 | SID131510582 | 0 | 3.4 |
| PPIC (peptidylprolyl isomerase C) | SID131514599 | 0 | 8 |
